Data: the supplement of paper PMC4807443
Where a name gives a salt, the structure may show the parent alone. The list shows a part of the results. The numbers are fractions of the control, whatever unit the source prints. Most values lie at the level of the controls, where differences are scatter.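 A lentiviral reporter stably expressed in MIN6 mouse insulinoma beta cells uses Pdx1 and Ins1 promoters to drive separate nucleus-targeted fluorescent proteins; automated imaging with Hoechst nuclear stain counted cells. Possible hits were drugs shifting Ins1 promoter signal more than two median absolute deviations from DMSO controls, with Pdx1 activity roughly normal.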

Test system: MIN6
Assay: % Pdx1+ Ins1-low (RFP-only, immature) cells relative to DMSO control (fold of DMSO control); higher = more immature Pdx1+/Ins1-low cells
Conditions: 8.5 µM; 48 h; glucose 5 mM

Compound	% Pdx1+ Ins1-low
Cc1cc2c(cc1S(N)(=O)=O)S(=O)(=O)CCC2 [Meticrane]	0.95
CC1(C)S[C@@H]2[C@H](NC(=O)[C@H](NC(=O)N3CCNC3=O)c3ccccc3)C(=O)N2[C@H]1C(=O)O [Azlocillin sodium salt]	0.823
COC(=O)Nc1nc2cc(C(=O)c3ccccc3)ccc2[nH]1 [Mebendazole]	0.639
CC(CCc1ccccc1)NCC(O)c1ccc(O)c(C(N)=O)c1 (centres undefined) [Labetalol hydrochloride]	0.623
COc1ccc(C(Cl)=C(c2ccc(OC)cc2)c2ccc(OC)cc2)cc1 [Chlorotrianisene]	1.14
Cc1oncc1C(=O)Nc1ccc(C(F)(F)F)cc1 [Leflunomide]	0.791
O=C(O)c1cccnc1Nc1cccc(C(F)(F)F)c1 [Niflumic acid]	0.626
C[N+](C)(C)CCCCCC[N+](C)(C)C [Hexamethonium dibromide dihydrate]	0.879
CC[N+](C)(C)Cc1ccccc1Br [Bretylium tosylate]	0.988
CN(C)/N=N/c1[nH]cnc1C(N)=O [Dacarbazine]	0.803
Cc1onc(-c2c(Cl)cccc2Cl)c1C(=O)N[C@@H]1C(=O)N2[C@@H]1SC(C)(C)[C@@H]2C(=O)O [Dicloxacillin sodium salt]	1.46
CN1C(C)(C)CCCC1(C)C [Pempidine tartrate]	0.755
N=C(N)c1ccc(OCCCCCOc2ccc(C(=N)N)cc2)cc1 [Pentamidine isethionate]	0.918
CC(=O)Nc1cc2ccccc2oc1=O [3-Acetamidocoumarin]	1.22
Fc1ccc(C(c2ccc(F)cc2)N2CCN(C/C=C/c3ccccc3)CC2)cc1 [Flunarizine dihydrochloride]	1.03
CN[C@@H]1[C@H](O[C@H]2[C@H](O[C@H]3[C@H](O)[C@@H](O)[C@H](N=C(N)N)[C@@H](O)[C@@H]3N=C(N)N)O[C@@H](C)[C@]2(O)C=O)O[C@@H](CO)[C@H](O)[C@H]1O [Streptomycin sulfate]	1
CC1(C)S[C@@H]2[C@H](NC(=O)[C@H](N)c3ccc(O)cc3)C(=O)N2[C@H]1C(=O)O [Amoxicillin]	1.2
COc1cccc2c1C(=O)c1c(O)c3c(c(O)c1C2=O)C[C@@](O)(C(=O)CO)C[C@@H]3O[C@H]1C[C@H](N)[C@H](O)[C@H](C)O1 [Doxorubicin hydrochloride]	2.13
C[C@]12CCC(=O)C=C1CC[C@@H]1[C@@H]2[C@@H](O)C[C@@]2(C)[C@H]1CC[C@]2(O)C(=O)CO [Hydrocortisone base]	0.973
CNCCCC1c2ccccc2C=Cc2ccccc21 [Protriptyline hydrochloride]	0.718
CCCCCCC[N+](CC)(CC)CCCCc1ccc(Cl)cc1 [Clofilium tosylate]	1.58
C[N+]1(CCCCC[N+]2(C)CCCC2)CCCC1 [Pentolinium bitartrate]	1.03
CCCc1cc(=O)[nH]c(=S)[nH]1 [Propylthiouracil]	0.399
COc1ccc(CCN(C)CCCC(C#N)(c2ccc(OC)c(OC)c2)C(C)C)cc1OC (centres undefined) [Verapamyl hydrochloride]	1.07
CCCN(CCC)S(=O)(=O)c1ccc(C(=O)O)cc1 [Probenecid]	0.89

Compound	% Pdx1+ Ins1-low
C[C@]12CC[C@@H]3c4ccc(O)cc4CC[C@H]3[C@@H]1CC[C@@H]2O [Estradiol-17 beta]	1.03
CN(C)CC/C=C1/c2ccccc2Sc2ccc(Cl)cc21 [Chlorprothixene hydrochloride]	1.13
NC(Cc1cc(I)c(Oc2cc(I)c(O)c(I)c2)c(I)c1)C(=O)O (centres undefined) [Thyroxine (L)]	0.841
CC(=O)[C@H]1CC[C@H]2[C@@H]3CCC4=CC(=O)CC[C@]4(C)[C@H]3CC[C@]12C [Progesterone]	0.624
CN(C)CCOC(c1ccccc1)c1ccccc1 [Diphenhydramine hydrochloride]	1.36
N=C(N)NC(=O)Cc1c(Cl)cccc1Cl [Guanfacine hydrochloride]	1.03
C[n+]1cc2c3c(ccc2c2ccc4cc5c(cc4c21)OCO5)OCO3 [Sanguinarine]	0.687
Clc1ccc(CSC(Cn2ccnc2)c2ccc(Cl)cc2Cl)cc1 (centres undefined) [Sulconazole nitrate]	0.795
CN1C(=O)CC(c2ccccc2)C1=O (centres undefined) [Phensuximide]	0.777
N[C@@H]1CONC1=O [D-cycloserine]	0.925
O=C(O)COCCN1CCN(C(c2ccccc2)c2ccc(Cl)cc2)CC1 (centres undefined) [Cetirizine dihydrochloride]	1.39
CC(=O)O[C@]1(C(C)=O)CC[C@H]2[C@@H]3C=C(Cl)C4=CC(=O)[C@@H]5C[C@@H]5[C@]4(C)[C@H]3CC[C@@]21C [Cyproterone acetate]	0.888
O=C(O)/C=C/c1ccc(O)c(O)c1 [Caffeic acid]	1.18
COc1cc2nc(N(C)CCCNC(=O)C3CCCO3)nc(N)c2cc1OC (centres undefined) [Alfuzosin hydrochloride]	1.03
Clc1ccc(Cn2c(CN3CCCC3)nc3ccccc32)cc1 [Clemizole hydrochloride]	1.46
NC(=O)c1cc[n+](CC2=C(C(=O)[O-])N3C(=O)[C@@H](NC(=O)[C@@H](c4ccccc4)S(=O)(=O)O)[C@H]3SC2)cc1 [Cefsulodin sodium salt]	0.832
CC1=C(/C=C/C(C)=C/C=C/C(C)=C/C(=O)O)C(C)(C)CCC1 [Retinoic acid]	0.843
N=C(N)NS(=O)(=O)c1ccc(N)cc1 [Sulfaguanidine]	1.14
Cc1ncc(CO)c(CO)c1O [Pyridoxine hydrochloride]	0.838
CCC1(c2ccccc2)NC(=O)N(C)C1=O (centres undefined) [Mephenytoin]	1.21
CCc1c(C)[nH]c2c1C(=O)C(CN1CCOCC1)CC2 (centres undefined) [Molindone hydrochloride]	0.668
Cc1c(C)c2c(c(C)c1O)CCC(C)(C(=O)O)O2 (centres undefined) [Trolox]	0.746
CC[C@H](C)C(=O)O[C@H]1C[C@@H](C)C=C2C=C[C@H](C)[C@H](CC[C@@H]3C[C@@H](O)CC(=O)O3)[C@H]21 [Lovastatin]	1.17
CCN(CC)CCOC(=O)c1ccc(N)cc1 [Procaine hydrochloride]	1.26
CC(C)=CCC/C(C)=C/CC/C(C)=C/CC/C(C)=C/CC/C(C)=C/CC/C(C)=C/CC1=C(C)C(=O)c2ccccc2C1=O [Vitamin K2]	0.985

A section taken from the entries so far, for reference:
Compound	% Pdx1+ Ins1-low
CN(C)CCOC(c1ccccc1)c1ccccc1 [Diphenhydramine hydrochloride]	1.36
N=C(N)NC(=O)Cc1c(Cl)cccc1Cl [Guanfacine hydrochloride]	1.03
C[n+]1cc2c3c(ccc2c2ccc4cc5c(cc4c21)OCO5)OCO3 [Sanguinarine]	0.687

Next part:

Compound	% Pdx1+ Ins1-low
CN(C)CCn1nnnc1SCC1=C(C(=O)O)N2C(=O)[C@@H](NC(=O)Cc3csc(N)n3)[C@H]2SC1 [Cefotiam hydrochloride]	0.907
CC(=O)O[C@H]1C[C@@]2(C)[C@@H](C[C@@H](O)[C@H]3[C@@]4(C)CC[C@@H](O)[C@@H](C)[C@@H]4CC[C@@]32C)/C1=C(\CCC=C(C)C)C(=O)O [Fusidic acid sodium salt]	0.959
N=C(N)NCc1cccc(I)c1 [Iobenguane sulfate]	1.13
Cc1ccnc(NS(=O)(=O)c2ccc(N)cc2)n1 [Sulfamerazine]	0.975
C[C@H]1NC(=O)NC1=O [Methylhydantoin-5-(D)]	0.388
COc1ccc(C[C@H](N)C(=O)N[C@H]2[C@@H](O)[C@H](n3cnc4c(N(C)C)ncnc43)O[C@@H]2CO)cc1 [Puromycin dihydrochloride]	0.793
Nc1ccc(S(=O)(=O)Nc2cnc3ccccc3n2)cc1 [Sulfaquinoxaline sodium salt]	1.03
CNC[C@H](O)[C@@H](O)[C@H](O)[C@H](O)CO [Meglumine]	0.819
CC(=O)Oc1ccccc1C(=O)Oc1ccccc1C(=O)O [Acetylsalicylsalicylic acid]	0.947
CNC(=O)c1c(I)c(C(=O)NCC(=O)Nc2c(I)c(C(=O)O)c(I)c(C(=O)NCCO)c2I)c(I)c(N(C)C(C)=O)c1I [Ioxaglic acid]	1.11
CCCCNc1cc(C(=O)O)cc(S(N)(=O)=O)c1Oc1ccccc1 [Bumetanide]	1.02
CC(C)n1c(/C=C/C(O)CC(O)CC(=O)O)c(-c2ccc(F)cc2)c2ccccc21 (centres undefined) [Fluvastatin sodium salt]	0.937
CN(C/C=C/c1ccccc1)Cc1cccc2ccccc12 [Naftifine hydrochloride]	1.03
CN1C(=O)OC(C)(C)C1=O [Trimethadione]	0.888
CC(=O)CCCCn1c(=O)c2c(ncn2C)n(C)c1=O [Pentoxifylline]	0.934
CC(C)NC[C@H](O)COc1cccc2ccccc12 [(S)-propranolol hydrochloride]	0.658
CCN1CCCC(OC(=O)C(c2ccccc2)c2ccccc2)C1 (centres undefined) [Piperidolate hydrochloride]	0.806
NS(=O)(=O)c1cc(Cl)c(Cl)c(S(N)(=O)=O)c1 [Dichlorphenamide]	0.735
CC(=O)NC(CC(=O)O)C(=O)O (racemic) [Aspartic acid, N-acetyl (R,S)]	0.891
COc1c(C)c2c(c(O)c1C/C=C(\C)CCC(=O)O)C(=O)OC2 [Mycophenolic acid]	1.07
Cc1onc(-c2c(F)cccc2Cl)c1C(=O)N[C@@H]1C(=O)N2[C@@H]1SC(C)(C)[C@@H]2C(=O)O [Flucloxacillin sodium]	0.788
CN(C)CCCSC(=N)N [Dimaprit dihydrochloride]	0.718
CNCCCC12CCC(c3ccccc31)c1ccccc12 [Maprotiline hydrochloride]	1.05
OC(c1cc(C(F)(F)F)nc2c(C(F)(F)F)cccc12)C1CCCCN1 (centres undefined) [Mefloquine hydrochloride]	0.736
